Our source for the cell number change and AC50 values is PubChem BioAssay AID2685 (National Center for Advancing Translational Sciences (NCATS), 2010).

The nature of this assay: qHTS Assay for Lipid Storage Modulators in Drosophila S3 Cells.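 On cell number change: cells counted by Cell Tracker Red CMTPX staining in the red channel.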 As to conditions: BODIPY lipid droplet fluorescence, 18-24 h; for cell number change: measured here: cell count max response, cells fed with added oleic acid. Put shortly: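 Drosophila S3 cells loaded with oleic acid (400 uM, as added) and compounds at several concentrations; lipid droplets imaged by 488-nm laser-scanning cytometry, 500–530 nm intensity and object ratio to cell channel. Percent activity normalized to 20 uM Triacsin C.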
In general terms: qHTS replaces the single test concentration by a dilution series.

The mark [1] stands for this setting: measured here: cell number channel AC50, cells fed with added oleic acid.
Where [2] appears, read: measured here: lipid fluorescence (Fed channel) AC50, cells fed with added oleic acid.

Some of the results follow. Shown are side measurements of this screen, not its main read-out; they come without a call. Compounds called inactive in the main read-out are mostly missing here. Potencies come from curve fits of mixed quality, noted in brackets.

For `CC(=O)Nc1ccc(S(=O)(=O)N[C@@H](C)C(=O)Nc2ccc(N3CCOCC3)cc2)cc1`, the cell number change came out at 23.2%. `O=C(Nc1cccc([N+](=O)[O-])c1)c1cc(S(=O)(=O)N2CCOCC2)cs1`: the cell number change is -26.1%. The AC50 is the concentration giving half of the maximal activity seen. Read a high AC50 as weaker potency. Regarding `Cc1nc2c(cnn2-c2ccccc2Cl)c(=O)n1-c1ccc(N2CCC(C)CC2)cc1`, the cell number change is -41.1%. Further, the AC50 under setting [1] is 1.84 µM [rising, partial curve]. Also, the concentration at half-maximal activity (AC50) under setting [2] is 2.91 µM [rising, partial curve].

As to `O=C(NCc1ccccc1Cl)C1CCN(C(=O)c2ccco2)CC1`, the cell number change was determined as 4.5%. Moreover, the half-maximal activity concentration (AC50) under setting [2] is 0.58 µM [rising, single point]. Turning to `CCCn1nnnc1NCc1ccccc1Cl`, the cell number change is 6.3%. Also, the AC50 under setting [2] is 29.1 µM [rising, single point]. Take `COc1ccccc1NC(=O)CNC(=O)Cn1cnc2sc(C)c(C)c2c1=O`: the cell number change amounted to 2.85%. The AC50 under setting [2] is 23.1 µM [rising, partial curve, poor fit]. Turning to `Cc1c(C(=O)Cc2ccccc2)n(C)c2ccccc12`, the cell number change is 56.7%. Further, the half-maximal activity concentration (AC50) under setting [1] was 18.4 µM [rising, single point].

As for `O=C(c1cnn2c(C(F)(F)F)cc(-c3ccc4c(c3)OCO4)nc12)N1CCCCC1`, the cell number change came to 1.02%. With `COc1ccc(S(=O)(=O)N2CCOCC2)cc1Br`, the cell number change stood at 11.1%. Regarding `NS(=O)(=O)c1cc(C(=O)NC2CCSc3ccccc32)ccc1Cl` (stereo not drawn), the cell number change came to 12.9%. Also, the AC50 under setting [2] is 0.00517 µM [falling, full curve, poor fit]. Turning to `NNC(=O)COc1ccc(C2SCCS2)cc1`, the cell number change is -31.8%. Also, the AC50 under setting [1] is 32.6 µM [falling, single point]. On to `COc1ccc(NC(=O)CSc2nnc3n2CCCCC3)cc1S(=O)(=O)N1CCOCC1`, for which the cell number change is -33.9%. Under setting [1], the AC50 was 0.206 µM [falling, full curve]. The half-maximal activity concentration (AC50) under setting [2] was 0.00461 µM [falling, full curve, poor fit]. Consider `CN(C)/C=N/NC(=O)C1Cc2c(ccc3ccccc23)O1` (stereo not drawn), for which the cell number change stood at 19.8%. In addition, the AC50 under setting [2] was 11.6 µM [rising, partial curve]. With `CN(C(=O)c1ccccc1)C1(C)CCS(=O)(=O)C1` (stereo not drawn), the cell number change is -53.6%. Also, the half-maximal activity concentration (AC50) under setting [1] was 9.2 µM [falling, partial curve]. In addition, the half-maximal activity concentration (AC50) under setting [2] was 5.8 µM [falling, full curve]. Consider `COc1ccc2sc(-c3ccc(N(C)C)cc3)c(-c3cnc(OC)nc3)c2c1`, for which the cell number change was -7.31%. Under setting [2], the AC50 is 16.4 µM [rising, single point].

Consider `Cn1c(O)c(N=Nc2ccccc2)c2ccccc21`, for which the cell number change amounted to 0.556%. Besides, the AC50 under setting [2] is 0.00411 µM [rising, full curve, poor fit]. Consider `CC(C)CN(C(=O)CN1CCCCCC1)c1c(N)n(CC(C)C)c(=O)[nH]c1=O`, for which the cell number change was -26.8%. Moreover, the concentration at half-maximal activity (AC50) under setting [2] was 0.82 µM [falling, partial curve, poor fit]. As to `Cc1c(C(=O)O)nnn1-c1nonc1N`, the cell number change came out at 9.85%. On to `O=C(OCC#CCSc1nnc(-c2cccc3ccccc23)o1)c1cccs1`, for which the cell number change is -0.83%. Besides, the concentration at half-maximal activity (AC50) under setting [2] is 0.164 µM [rising, full curve, poor fit]. As to `Cc1cccc(C)c1NC(=O)COc1ccc2c(C)c(Cc3ccccc3)c(=O)oc2c1C`, the cell number change was -24.2%. In addition, under setting [2], the half-maximal activity concentration (AC50) was 29.1 µM [falling, single point]. For the compound `COc1ccc(NC(=O)COc2ccc3c(c2)OCO3)cc1`, the cell number change is -26.3%. With `O=C(O)c1nn(-c2ccccc2-c2n[nH]c(=O)[nH]c2=O)c(=O)[nH]c1=O`, the cell number change came out at 3.3%. Besides, under setting [2], the AC50 is 6.51 µM [falling, single point].

With `CC1(C)CC(C(CC(=O)N2CCCC2)Cc2ccccc2)CCO1` (stereo not drawn), the cell number change was determined as 6.4%. For the same compound, the AC50 under setting [2] is 29.1 µM [rising, single point]. As to `CCCc1nn(C)c(C(=O)Nc2cccc(C)c2)c1Cl`, the cell number change was -24.8%. In addition, the concentration at half-maximal activity (AC50) under setting [2] is 0.651 µM [rising, full curve, poor fit]. Take `C#CCSc1nc2[nH]ncc2c(=O)[nH]1`: the cell number change was -0.47%. For the compound `Cc1ccc(S(=O)(=O)N2CCCC2C(=O)O)s1` (stereo not drawn), the cell number change was -8.27%. For the same compound, under setting [1], the AC50 is 7.31 µM [falling, single point]. Also, under setting [2], the AC50 is 29.1 µM [falling, single point]. As for `COC(=O)c1onc(-c2c(Cl)cccc2Cl)c1C(=O)OC`, the cell number change worked out at 20.3%. Also, the concentration at half-maximal activity (AC50) under setting [2] is 0.0058 µM [rising, full curve, poor fit]. Regarding `c1ccc(OCCN2CCN(C(c3ccccc3)c3ccccc3)CC2)cc1`, the cell number change is -25.9%.

For `O=C(CN1C(=O)NC2(CCCCC2)C1=O)N(Cc1ccco1)Cc1cccs1`, the cell number change amounted to 1.2%. Still for that read-out and setting: then `COc1cccc(NC(=O)CN(C)C(=O)c2cccnc2Nc2cccc(C(F)(F)F)c2)c1`, with -26.7%. In the case of `O=C(CN1CCCCC1)Nc1ccc(NC(=O)c2ccccc2Cl)cc1Cl`, the cell number change was found to be 0.559%. Further, the half-maximal activity concentration (AC50) under setting [2] is 5.8 µM [rising, partial curve].

Consider `CN(C)c1cccc(C(=O)NC2CCCCCC2)c1`, for which the cell number change was -13.8%. In addition, under setting [2], the AC50 is 4.11 µM [rising, single point]. Regarding `C/C(=N\NC(=O)c1nnn(-c2nonc2N)c1CN(C)c1ccccc1)c1cccc(O)c1`, the cell number change is -25.7%. The AC50 under setting [2] is 32.6 µM [falling, single point]. Consider `O=C(NCc1cccs1)c1csc2ccccc12`, for which the AC50 is, setting by setting: under setting [1], 0.731 µM [falling, full curve]; under setting [2], 6.51 µM [falling, single point]. As to `Cn1c(=O)c2c(ncn2CC2OCCO2)n(C)c1=O`, the cell number change was 24.3%. Under setting [1], the AC50 was 6.51 µM [rising, single point]. For the same compound, the AC50 under setting [2] was 6.51 µM [rising, single point].

Take `Cc1cc(C)c2c(N)c(C(=O)c3ccccc3)oc2n1`: the cell number change amounted to 1.56%. In the case of `Fc1ccc(C2CC(c3ccco3)=NN2c2ccccc2)cc1` (stereo not drawn), the cell number change is -65.1%. Besides, the half-maximal activity concentration (AC50) under setting [1] is 0.0651 µM [falling, full curve, poor fit]. Moreover, the half-maximal activity concentration (AC50) under setting [2] was 0.291 µM [falling, full curve].

On to `Cc1ccc(NC(=O)CN(C)C(=O)CSc2ncc(C(F)(F)F)cc2Cl)cc1`, for which the cell number change came out at 20.4%. For the same compound, the half-maximal activity concentration (AC50) under setting [2] is 20.6 µM [rising, single point].

For `Cc1nc(-c2ccc(S(=O)(=O)NCC3CCN(C(=O)OC(C)(C)C)CC3)s2)cs1`, the cell number change is -3.07%. The AC50 under setting [2] is 4.61 µM [rising, single point]. Take `CCc1ccccc1-n1c(SCC(=O)c2c(N)n(C3CC3)c(=O)[nH]c2=O)nnc1N1CCOCC1`: the cell number change came to 18.9%. The AC50 under setting [2] is 6.51 µM [falling, single point].

For `CCc1ccc(/C=N/NC(=O)Cc2ccc(OC)c(OC)c2)s1`, the cell number change came to 7.23%. As for `CC12CCC(c3c1nc1ccccc1[n+]3[O-])C2(C)C` (stereo not drawn), the cell number change is -11.6%. For the same compound, under setting [2], the concentration at half-maximal activity (AC50) is 2.06 µM [rising, partial curve]. As to `Cc1cc(C)c(S(=O)(=O)NCCc2cc3ccc(C)c(C)c3[nH]c2=O)c(C)c1`, the cell number change is -1.35%. Also, the half-maximal activity concentration (AC50) under setting [2] is 29.1 µM [falling, single point]. Regarding `COC(=O)c1ccc(NC(=O)Cn2nc(-c3ccncc3)nc2SCC(=O)Nc2nccs2)cc1`, the half-maximal activity concentration (AC50) under setting [2] was 29.1 µM [rising, single point].

Regarding `O=C(CCn1c(=O)oc2ccccc21)NCCN1CCc2ccccc2C1`, the cell number change was 18.9%. Take `Cc1cccc(C(=O)NC(=S)N2CCN(C(=S)NC(=O)c3cccc(C)c3)CC2)c1`: the cell number change came to 8.31%. The half-maximal activity concentration (AC50) under setting [2] was 3.66 µM [rising, full curve]. With `Cc1ccc(COC(=O)c2cccc(S(=O)(=O)N3CCCCC3)c2)cc1`, the cell number change was 75%. For the same compound, the AC50 under setting [1] is 6.51 µM [falling, single point]. Take `CCOC(=O)c1nn(-c2ccc(F)cc2)c(=O)cc1OCC(=O)Nc1ccc(F)c(F)c1`: the cell number change worked out at 26.1%. The AC50 under setting [1] is 0.0058 µM [rising, full curve, poor fit]. Consider `CC(NC(=O)c1ccc(C#N)cc1)C1CC2CCC1C2` (stereo not drawn), for which the cell number change was -3.48%.

On to `O=C(Oc1cccc(C(=S)N2CCOCC2)c1)c1ccccc1`, for which the cell number change stood at 6.58%. Consider `CCOc1ccccc1NC(=O)c1cnccn1`, for which the cell number change is 19.6%. The AC50 under setting [2] was 29.1 µM [rising, single point]. `CCOc1ccccc1N=Cc1c(O)n(C)c(=O)n(C)c1=O`: the cell number change is -12.5%. Besides, the half-maximal activity concentration (AC50) under setting [2] is 0.00461 µM [falling, full curve, poor fit]. With `CCOC(=O)c1ccccc1NC(=O)c1ccccc1SC`, the cell number change stood at 184%. In addition, the AC50 under setting [1] was 3.66 µM [rising, full curve]. Further, the AC50 under setting [2] was 7.31 µM [rising, partial curve]. On to `CC(C)Oc1cccc(-c2nnc(SCC(=O)Nc3ccc4c(c3)OCCO4)n2N)c1`, for which the cell number change was -18.6%. In addition, the half-maximal activity concentration (AC50) under setting [2] is 18.4 µM [falling, single point]. Consider `COc1ccccc1-n1cnnc1SCC(=O)Nc1cccc(S(N)(=O)=O)c1`, for which the cell number change is 3.78%. Moreover, under setting [2], the AC50 is 29.1 µM [rising, single point].

As for `C=CCn1c(-c2cccc(S(=O)(=O)N(CC)CC)c2)n[nH]c1=S`, the AC50 under setting [2] is 0.731 µM [rising, single point]. Turning to `CCCCN(C(=O)c1ccc(-c2ccc([N+](=O)[O-])cc2)o1)c1c(N)n(CCCC)c(=O)[nH]c1=O`, the cell number change is -32.7%. Moreover, under setting [1], the AC50 is 18.4 µM [falling, single point].

Consider `CCOc1ccc2nc(N(CCCN(C)C)C(=O)c3ccc(S(=O)(=O)N4CCc5ccccc5C4)cc3)sc2c1`, for which the cell number change is 25.3%. Further, the AC50 under setting [2] was 16.4 µM [rising, single point].

Turning to `O=S1(=O)CC2N=C(N(Cc3c(F)cccc3Cl)c3ccccc3F)SC2C1` (stereo not drawn), the cell number change came out at 4.64%. Take `COCC(C)NC(=O)c1ccc2c(c1)S(=O)(=O)c1ccccc1C2=O` (stereo not drawn): the cell number change is -12.1%. Moreover, the half-maximal activity concentration (AC50) under setting [2] is 20.6 µM [falling, single point]. With `Cc1cc(C)cc(C(=O)Nc2ccncc2)c1`, the cell number change was found to be 1.66%. Also, the concentration at half-maximal activity (AC50) under setting [2] is 29.1 µM [rising, single point]. For the compound `Cn1cc(CC(=O)N2CCN(c3ccccc3F)CC2)c2ccccc21`, the cell number change stood at 8.96%. Besides, under setting [2], the AC50 is 2.06 µM [rising, partial curve]. For `Cc1ccc(N/C=C/C(=O)c2cccs2)cc1C`, the cell number change was determined as 29.5%. For the same compound, the half-maximal activity concentration (AC50) under setting [2] is 4.11 µM [rising, partial curve]. `O=C(NCC1CCCO1)C12CN(Cc3ccccc3)CC1C(c1cccc([N+](=O)[O-])c1)=NO2` (stereo not drawn): under setting [2], the AC50 is 6.51 µM [falling, single point]. Regarding `CCOC(=O)COn1c(=O)c[n+]([O-])c2ccccc21`, the cell number change is -6.27%. Besides, the AC50 under setting [2] is 0.13 µM [falling, single point].
